{"source": "patent US10801050B2", "about": "“Microorganism modified for the assimilation of levulinic acid” (priority 2015, dated 2020)", "system": "Ralstonia eutropha DSM428", "assay": "Quantitative proteomics of Ralstonia eutropha DSM428 cultivated with or without levulinic acid (nanoLC-MS/MS)", "assay_type": "cell-based", "conditions": "for % of total proteins Without LA / % of total proteins With LA: Ralstonia eutropha DSM428, shake flasks, LB rich medium, nanoLC-MS/MS protein abundance; for % of total proteins Without LA: 0 g/L levulinic acid; for % of total proteins With LA: 5 g/L levulinic acid; for expression level in response to levulinic acid (protein abundance, % of total proteins): Ralstonia eutropha DSM428, LB rich medium, 5 g/L vs 0 g/L levulinic acid, up-regulated = quantity at least multiplied by 2"}
{"substance": "CLPP_CUPNH", "values": [{"measurement": "% of total proteins Without LA", "result": "0.20 % of total proteins"}, {"measurement": "% of total proteins With LA", "result": "0.20 % of total proteins"}]}
{"substance": "ENO_CUPNH", "values": [{"measurement": "% of total proteins Without LA", "result": "0.80 % of total proteins"}, {"measurement": "% of total proteins With LA", "result": "0.78 % of total proteins"}]}
{"substance": "MDH_CUPNH", "values": [{"measurement": "% of total proteins Without LA", "result": "1.50 % of total proteins"}, {"measurement": "% of total proteins With LA", "result": "1.51 % of total proteins"}]}
{"substance": "Q0KAG4_CUPNH: a 2-methylcitrate synthase (PrpC) of the 2-methylcitric acid cycle", "values": [{"measurement": "expression level in response to levulinic acid (protein abundance, % of total proteins)", "result": "up-regulated"}, {"measurement": "% of total proteins Without LA", "result": "0.49 % of total proteins"}, {"measurement": "% of total proteins With LA", "result": "1.82 % of total proteins"}]}
{"substance": "Q0KBG1_CUPNH: Ralstonia eutropha acetyl-CoA acetyltransferase (EC 2.3.1.9), candidate for reaction B", "values": [{"measurement": "expression level in response to levulinic acid (protein abundance, % of total proteins)", "result": "up-regulated"}, {"measurement": "% of total proteins Without LA", "result": "<0.06 % of total proteins"}, {"measurement": "% of total proteins With LA", "result": "0.30 % of total proteins"}]}
{"substance": "Q0KBZ9_CUPNH/Q0KC00_CUPNH: the 2 subunits of succinyl-CoA:3-ketoacid-coenzyme A transferase (EC 2.8.3.5), candidate for reaction A2", "values": [{"measurement": "abundance compared with respective counterparts identified for reactions A and B", "setting": "proteomics of Ralstonia eutropha DSM428", "result": "more abundant"}]}
{"substance": "Q0KBZ9_CUPNH: subunit of a Ralstonia eutropha succinyl-CoA:3-ketoacid-coenzyme A transferase (EC 2.8.3.5), gene H16_A1332", "values": [{"measurement": "expression level in response to levulinic acid (protein abundance, % of total proteins)", "result": "up-regulated"}, {"measurement": "% of total proteins Without LA", "result": "0.26 % of total proteins"}, {"measurement": "% of total proteins With LA", "result": "0.76 % of total proteins"}]}
{"substance": "RPOB_CUPNH", "values": [{"measurement": "% of total proteins Without LA", "result": "2.55 % of total proteins"}, {"measurement": "% of total proteins With LA", "result": "2.85 % of total proteins"}]}
